From PubChem BioAssay AID493014 (National Center for Advancing Translational Sciences (NCATS), 2011)
The list shows a part of the results. Further columns of the screen follow, without active or inactive calls. Most of these compounds were active or inconclusive in the main read-out, so they are no random draw. Words in brackets tell the shape of the fitted curve; partial curves, single points and poor fits give uncertain potencies.

Assay: qHTS Assay to Find Inhibitors of Chronic Active B-Cell Receptor Signaling
Conditions: ABC-DLBCL IkBa-CBG/CBR reporter, luminescence ratio (green luciferase fused to IkBa over red control in TMD8 lymphoma cells), 4 h
Summary of the method: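 TMD8 human ABC-DLBCL cells with doxycycline-inducible IκBα–green luciferase fusion and unfused red luciferase, in 0.5% FBS medium; compounds up to 46 uM, 4 h at 37C. Green/red luminescence ratio, filter-overlap corrected, fitted to concentration-response curves.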

[1] = measured here: CBR red luminescence, cell number
[2] = measured here: IkBa-CBG green luminescence

SMILES: CC(=O)Nc1cccc(OCC(=O)NC(C)C(C)C)c1 (stereo unspecified)
- AC50 [1]: 1.84 µM [falling, single point]

SMILES: N#CC1=C2SCC(O)(c3ccccc3)N2C(=O)CC1c1cccs1 (stereo unspecified)
- AC50 [1]: 35.5 µM [falling, single point]
- AC50 [2]: 3.55 µM [falling, full curve]

SMILES: COC(=O)CSC(C(=O)Nc1ccc(C)c(C)c1)c1ccccc1 (stereo unspecified)
- AC50 [1]: 10 µM [rising, partial curve]

SMILES: CC(C)(C)C(=O)N1CCN(c2nc3ccc(Cl)cc3s2)CC1
- AC50 [1]: 14.1 µM [rising, partial curve, poor fit]

SMILES: CCc1cc2c(SCC(=O)N(CC)c3c(N)n(Cc4ccccc4)c(=O)[nH]c3=O)ncnc2s1
- AC50 [1]: 5.62 µM [rising, single point]

SMILES: O=c1c2cnn(-c3ccccc3)c2nnn1Cc1ccccn1
- AC50 [1]: 20.6 µM [falling, single point]

SMILES: O=C(Nc1scc(-c2ccccc2)c1C(=O)O)c1ccc(F)cc1
- AC50 [1]: 11.2 µM [falling, partial curve]

SMILES: CCn1c(C(c2ccccc2)c2ccccc2)n[nH]c1=S
- AC50 [1]: 29.1 µM [falling, single point]

SMILES: Cn1c(=N)n(CC(=O)c2cccs2)c2ccccc21
- AC50 [1]: 2.82 µM [rising, full curve, poor fit]

SMILES: COc1ccccc1NC(=O)Nc1nc(C(C)(C)C)cs1
- AC50 [1]: 8.91 µM [falling, partial curve, poor fit]

SMILES: CCN(CC)c1ccc(NC(=O)COC(=O)CCC(=O)c2ccc(F)cc2)cc1
- AC50 [1]: 23.1 µM [falling, partial curve, poor fit]

SMILES: CC(CNc1nc2ccc(Cl)cc2n2cnnc12)c1ccccc1 (stereo unspecified)
- AC50 [1]: 0.562 µM [rising, full curve, poor fit]

SMILES: COc1cc2c(cc1OC)CN(C(=O)c1ccc3nc[nH]c3c1)CC2
- AC50 [2]: 12.6 µM [falling, single point]

SMILES: CCOc1ccccc1-n1c(SCC(=O)Nc2nccs2)nnc1-c1ccoc1C
- AC50 [1]: 7.08 µM [falling, partial curve, poor fit]

SMILES: COc1ccc(CNC(=O)c2nc(S(=O)(=O)Cc3ccccc3)ncc2Cl)cc1
- AC50 [1]: 2.82 µM [falling, full curve, poor fit]

SMILES: O=[N+]([O-])c1cccc(-c2csc(CS(=O)(=O)Cc3ccco3)n2)c1
- AC50 [1]: 12.6 µM [rising, partial curve, poor fit]

SMILES: Cc1cccc(OCCOCCN2CCOCC2)c1C
- AC50 [1]: 3.66 µM [rising, partial curve]

SMILES: C/C(NCc1cccnc1)=C(\C#N)C(=O)NCc1ccccc1
- AC50 [1]: 7.94 µM [rising, partial curve, poor fit]

SMILES: O=C(c1cc2ccccc2oc1=O)N1CCN(S(=O)(=O)c2ccccc2)CC1
- AC50 [1]: 7.08 µM [rising, partial curve, poor fit]

SMILES: C/C(=N\NC(=O)c1ccc(Cl)c(Cl)c1)c1ccccn1
- AC50 [1]: 2 µM [rising, full curve]

SMILES: COc1ccccc1OCc1ccc(C(=O)n2nc(C)c(Cl)c2C)o1
- AC50 [1]: 0.00517 µM [falling, full curve, poor fit]

SMILES: CCCNCc1cc(OCC)c(OCC(=O)Nc2ccccc2)cc1Br
- AC50 [1]: 35.5 µM [falling, single point]

SMILES: Cc1ccsc1C1Nc2ccc3ncccc3c2C2=C1C(=O)CC(C)(C)C2 (stereo unspecified)
- AC50 [1]: 35.5 µM [falling, single point]

SMILES: O=C(O)CCCCCCCCCC(=O)c1cccs1
- AC50 [1]: 7.94 µM [falling, partial curve, poor fit]

SMILES: Cc1ccc(NC2=NC3(CCCCC3)N=C(N)N2)c(C)c1
- AC50 [1]: 32.6 µM [falling, partial curve, poor fit]

SMILES: O=C(CSc1nnc([C@@H]2CCCN2)o1)c1ccc(Cl)cc1
- AC50 [1]: 12.6 µM [rising, partial curve, poor fit]

SMILES: Cc1ccc(-n2c(SCC(=O)NC3CCCCC3)nc3c(c2=O)SCC3)cc1
- AC50 [1]: 20.6 µM [rising, single point]

SMILES: COc1ccc2[nH]c(-c3ccc(C)cc3)cc(=O)c2c1
- AC50 [1]: 2.91 µM [falling, partial curve, poor fit]

SMILES: O=C1NN(c2ccc(Br)cc2)C(=O)/C1=C\c1ccc(O)cc1O
- AC50 [1]: 0.398 µM [falling, full curve]

SMILES: CN(CC(=O)Nc1ccc(F)cc1Cl)Cc1cccs1
- AC50 [1]: 15.8 µM [rising, partial curve, poor fit]

SMILES: CCOc1cccc(Nc2ccc([N+](=O)[O-])cn2)c1
- AC50 [1]: 4.47 µM [rising, full curve]

SMILES: O=C(NC1CCCCCC1)C1Cc2ccccc2CN1C(=O)c1ccco1 (stereo unspecified)
- AC50 [1]: 1.78 µM [falling, full curve]

SMILES: CN(CC(=O)NC(=O)NC1CCCCC1)CC(=O)Nc1ccc(Cl)cc1
- AC50 [1]: 23.1 µM [falling, single point]

SMILES: Oc1ccc2oc3c(c2c1C=NCc1ccncc1)CCCC3
- AC50 [1]: 12.6 µM [rising, partial curve, poor fit]

SMILES: COc1cc(CCC(=O)N2CCN(c3ccc([N+](=O)[O-])cc3)CC2)cc(OC)c1OC
- AC50 [1]: 20 µM [falling, single point]

SMILES: O=C(NCCc1ccc(O)c(O)c1)C1COc2ccccc2O1 (stereo unspecified)
- AC50 [1]: 8.91 µM [falling, partial curve, poor fit]

SMILES: NC(=O)C1=C[C@H](C2CCCCC2)C[C@H](OCc2ccc(CO)cc2)O1
- AC50 [1]: 6.31 µM [rising, single point]

SMILES: CCOC(=O)N1CCN(Cc2nnc(-c3cccc(Br)c3)o2)CC1
- AC50 [1]: 35.5 µM [rising, single point]

SMILES: Cc1ccc(C)c(CN2CCCNC2=O)c1
- AC50 [1]: 35.5 µM [rising, single point]

SMILES: COc1ccc(OC)c(NC(=O)CSc2nnc(CCCO)n2-c2ccccc2)c1
- AC50 [1]: 3.26 µM [falling, full curve, poor fit]

SMILES: CCCCN(CC)CCNC(=O)c1ccc2c(Cl)c3c(nc2c1)CCC3
- AC50 [1]: 1 µM [falling, full curve, poor fit]

SMILES: O=C(CSc1ccc2nnc(-c3ccccn3)n2n1)Nc1nccs1
- AC50 [1]: 1.12 µM [falling, full curve, poor fit]

SMILES: Cc1ccc(-n2c3c(cc(C(=O)NCc4ccco4)c2=O)C(=O)CCC3)cc1
- AC50 [1]: 6.31 µM [falling, single point]

SMILES: Cc1cc(C)cc(C(=O)OCC(=O)N2CCCCCC2)c1
- AC50 [1]: 16.4 µM [falling, partial curve]

SMILES: Cc1cc(C)n2nc(C(=O)Nc3ccc4c(c3)OCO4)nc2n1
- AC50 [1]: 18.4 µM [falling, single point]

SMILES: Cc1ccc(C(=O)Nc2ccccc2C(=O)O)cc1NC(=O)COc1c(C)cccc1C
- AC50 [1]: 0.708 µM [falling, full curve, poor fit]

SMILES: O=S(=O)(NCc1ccccc1F)NCc1ccccc1F
- AC50 [1]: 0.631 µM [rising, full curve, poor fit]

SMILES: Fc1cccc(Cl)c1Cc1noc(/C=C/c2ccccc2)n1
- AC50 [1]: 7.08 µM [rising, partial curve, poor fit]

SMILES: CCCn1nnc2sc3c(c2c1=O)CCC(C)C3 (stereo unspecified)
- AC50 [1]: 9.2 µM [rising, partial curve, poor fit]

SMILES: Cc1ccc(C)c(NC(=O)c2cc(-c3cc(C)c(C)cc3O)n[nH]2)c1
- AC50 [1]: 1 µM [falling, full curve]

SMILES: COC(=O)Cn1c(=O)c2c(nc3n2CCCN3CCc2ccccc2)n(C)c1=O
- AC50 [1]: 3.98 µM [falling, full curve]

SMILES: Cc1ccccc1-c1ocnc1C(=O)Nc1ccccc1NC(=O)c1ccccn1
- AC50 [1]: 22.4 µM [falling, single point]

SMILES: COc1ccccc1OCCCCn1ncc2ccc(OC)c(OC)c2c1=O
- AC50 [1]: 6.31 µM [rising, partial curve, poor fit]

SMILES: CC(=C/c1ccccc1)/C=N/n1cnnc1
- AC50 [1]: 12.6 µM [rising, partial curve, poor fit]

SMILES: CN(C)C(=O)CCc1ccc2c3c([nH]c2c1)[C@]1(C)[C@@H](C(=O)N2CCCCC2)C[C@H](CC(=O)NCCCn2ccnc2)C(=O)N1CC3
- AC50 [1]: 9.2 µM [rising, partial curve, poor fit]

SMILES: O=C(CCC(=O)c1ccc(F)cc1)Nc1ccccc1Cl
- AC50 [1]: 8.2 µM [falling, partial curve]

SMILES: Cc1ccc(-n2cnc3cc(C(=O)NCc4ccccc4Cl)ccc32)c(C)c1
- AC50 [1]: 3.98 µM [falling, partial curve, poor fit]

SMILES: C=CCOc1ccc(C2NC(=O)NC(C)=C2C(=O)OC)cc1 (stereo unspecified)
- AC50 [1]: 0.461 µM [falling, partial curve, poor fit]

SMILES: CCOC(=O)c1c(NC(=O)CN2C(=O)NC3(CCCCC3C)C2=O)sc(C(=O)N(C)C)c1C (stereo unspecified)
- AC50 [1]: 1.3 µM [rising, full curve, poor fit]

SMILES: O=C(/C=C/c1ccccc1[N+](=O)[O-])Nc1ccccc1
- AC50 [1]: 35.5 µM [falling, single point]

SMILES: CCC(=O)N/C=C/n1cnc2cc(C(F)(F)F)ccc21
- AC50 [1]: 8.91 µM [rising, partial curve, poor fit]

SMILES: CCn1nnc(NC(=O)c2ccc(-c3ccc(Cl)cc3)o2)n1
- AC50 [1]: 29.1 µM [falling, single point]

SMILES: O=C(COC(=O)c1n[nH]c2ccccc12)Nc1ccccc1
- AC50 [1]: 22.4 µM [falling, single point]

SMILES: C=CCn1c(C)cc(C(=O)CSc2nnc3c(Cl)cc(Cl)cn23)c1C
- AC50 [1]: 0.0184 µM [falling, full curve, poor fit]

SMILES: O=S1(=O)CCC(n2nccc2-c2ccccc2)C1 (stereo unspecified)
- AC50 [1]: 35.5 µM [rising, partial curve, poor fit]
